# ± gives the standard deviation of the averaged measurements. This is a selection; strong and weak results do not stand in their true shares. Most values lie within the scatter of the assay; repeated measurements hardly agree.
# Test system: FaDu
# Assay: mitochondrial oxygen consumption rate normalised to cell number, Z score over the library; higher = higher oxygen consumption (negative = OCR reduction)
# Settings: treatment time 24 h, assay medium: 5 mM galactose, 5 mM pyruvate, 4 mM glutamine
# Description: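 Primary screen: FaDu cells were incubated 24 h with Pharmakon 1600 / TDI oncology set compounds at 2 or 10 uM. Mitochondrial-specific OCR (basal minus 2 uM antimycin A) was measured on a Seahorse XF96 in assay medium with 5 mM galactose, 5 mM pyruvate and 4 mM glutamine, then corrected for Hoechst cell number and expressed as a Z score […]. Compounds that cut cell number by >66% were excluded. Two repeats.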
Compound,mitochondrial oxygen consumption rate normalised (2 µM),mitochondrial oxygen consumption rate normalised (10 µM)
O=C1c2c(O)cccc2Cc2cccc(O)c21,0.107 ± 0.14,–
CC[N+](C)(CC)CCOC(=O)C(O)(c1ccccc1)C1CCCCC1 (centres undefined),0.23 ± 0.33,–
COc1cc(C(=O)OCCCN2CCCN(CCCOC(=O)c3cc(OC)c(OC)c(OC)c3)CC2)cc(OC)c1OC,0.604 ± 0.06,–
CN(C)CCCN1c2ccccc2Sc2ccc(C(F)(F)F)cc21,-0.0939 ± 0.67,–
CCCCC(O)c1ccccc1 (centres undefined),-0.565 ± 0.28,–
CC(N/C(=N\C#N)Nc1ccncc1)C(C)(C)C (centres undefined),0.503 ± 0.21,–
CC1(C)OC(=O)C(OCC2CC2)=C1c1ccc(S(C)(=O)=O)cc1,0.0502 ± 0.39,–
CCN(CC)CCOC(=O)C1(C2CCCCC2)CCCCC1,-0.317 ± 0.84,–
CCCCOCCOCCOCc1cc2c(cc1CCC)OCO2,0.317 ± 1.2,–
CC(=O)Oc1ccccc1C(=O)Nc1ncc([N+](=O)[O-])s1,-0.115 ± 1.3,–
Oc1cc(O)c2c(c1)O[C@H](c1ccc(O)c(O)c1)[C@@H](O)C2,-0.405 ± 0.28,–
O=C(O)CCc1nc(-c2ccccc2)c(-c2ccccc2)o1,-0.0757 ± 0.69,–
O=C1c2ccccc2C(=O)C1c1ccccc1,-0.216 ± 0.3,-1.52 ± 0.92
Clc1ccc2c(c1)C(N1CCNCC1)=Nc1ccccc1O2,-0.971 ± 1.3,–
OCCN1CCN(CCCN2c3ccccc3Sc3ccc(C(F)(F)F)cc32)CC1,1.24 ± 0.43,–
CC(C)(Oc1ccc(CCNC(=O)c2ccc(Cl)cc2)cc1)C(=O)O,1.05 ± 0.24,–
c1ccc(CC2=NCCN2)cc1,-0.152 ± 0.14,–
CC1=C(/C=C/C(C)=C/C=C/C(C)=C/C=C/C=C(C)/C=C/C=C(C)/C=C/C2=C(C)CCCC2(C)C)C(C)(C)CCC1 [beta-CAROTENE],0.423 ± 0.15,–
CC(C(=O)O)c1ccc(CC2CCCC2=O)cc1 (centres undefined),-0.864 ± 0.58,–
CO[C@H]1/C=C/O[C@@]2(C)Oc3c(C)c(O)c4c(O)c(c(/C=N/N5CCN(C)CC5)c(O)c4c3C2=O)NC(=O)/C(C)=C\C=C\[C@H](C)[C@H](O)[C@@H](C)[C@@H](O)[C@@H](C)[C@H](OC(C)=O)[C@@H]1C,-0.572 ± 0.12,–
CCCSc1ccc2[nH]c(NC(=O)OC)nc2c1,1.01 ± 0.65,0.883 ± 0.12
Cc1c(Cl)cccc1Nc1ccccc1C(=O)O,-0.68 ± 1.3,–
O=C(O)c1ccccc1-c1c2cc(I)c(=O)c(I)c-2oc2c(I)c(O)c(I)cc12,0.759 ± 0.47,–
CCc1ccc(CCOc2ccc(CC3SC(=O)NC3=O)cc2)nc1 (centres undefined),-0.169 ± 0.75,–
Cc1ccc(N(CC2=NCCN2)c2cccc(O)c2)cc1,-0.678 ± 0.44,–
O=C1c2c(O)cc(CO)cc2C(OC2OC(CO)C(O)C(O)C2O)c2cccc(OC3OC(CO)C(O)C(O)C3O)c21 (centres undefined) [CASANTHRANOL [cascaroside A shown]],0.4 ± 0.24,–

Compound,mitochondrial oxygen consumption rate normalised (2 µM),mitochondrial oxygen consumption rate normalised (10 µM)
CN(C)[C@@H]1C(O)=C(C(N)=O)C(=O)[C@@]2(O)C(O)=C3C(=O)c4c(O)cccc4[C@@](C)(O)[C@H]3C[C@@H]12,-0.8419 ± 0.0073,–
C[C@H](N[C@@H](CCc1ccccc1)C(=O)O)C(=O)N1CCC[C@H]1C(=O)O,0.503 ± 0.43,–
COC(=O)[C@H](c1ccccc1Cl)N1CCc2sccc2C1,0.423 ± 1.1,–
C[C@]12CCC(=O)C=C1CC[C@@H]1[C@@H]2C(=O)C[C@@]2(C)[C@H]1CC[C@]2(O)C(=O)CO,-0.395 ± 0.56,–
COCCCC/C(=N\OCCN)c1ccc(C(F)(F)F)cc1,0.251 ± 0.47,–
CC(=O)[C@@]12O[C@](C)(c3ccccc3)O[C@@H]1C[C@H]1[C@@H]3CCC4=CC(=O)CC[C@]4(C)[C@H]3CC[C@@]12C,-0.271 ± 0.92,–
NC(=O)N[C@@H](CCC(=O)O)C(=O)O,-0.164 ± 0.87,–
Nc1nc(F)nc2c1ncn2[C@@H]1O[C@H](COP(=O)(O)O)[C@@H](O)[C@@H]1O [Fludarabine Phosphate],0.548 ± 0.61,–
Nc1nc(F)nc2c1ncn2[C@@H]1O[C@H](COP(=O)(O)O)[C@@H](O)[C@@H]1O,-0.579 ± 0.45,–
CCOC(=O)N1CCC(=C2c3ccc(Cl)cc3CCc3cccnc32)CC1,0.43 ± 2.1,–
NC(=O)c1ccccc1O,-0.323 ± 0.076,–
COc1ccc(C(=O)CCC(=O)O)c2ccccc12,0.644 ± 0.81,–
CC(C)C[C@H](NC(=O)[C@H](Cc1ccccc1)NC(=O)c1cnccn1)B(O)O [Bortezomib],-0.557 ± 0.22,–
Oc1c(Br)cc(Br)c2cccnc12,0.347 ± 1.1,-1.77 ± 0.19
c1ccc2c(c1)CCCC2C1=NCCN1 (centres undefined),-1.33 ± 0.23,–
C[C@@H](O)[C@H]1C(=O)N2C(C(=O)O)=C(SCCNC=N)C[C@H]12,0.219 ± 0.95,–
Cc1ncc([N+](=O)[O-])n1C,1.1 ± 1.1,–
CCCCCN(C)CCC(O)(P(=O)(O)O)P(=O)(O)O,0.647 ± 0.25,–
C1N2CN3CN1CN(C2)C3,1.25 ± 0.56,–
C[Se]CC[C@H](N)C(=O)O,0.708 ± 0.94,–
CC(C)c1nc(N(C)S(C)(=O)=O)nc(-c2ccc(F)cc2)c1/C=C/[C@@H](O)C[C@@H](O)CC(=O)O,0.0565 ± 0.89,–
C=C(CC)C(=O)c1ccc(OCC(=O)O)c(Cl)c1Cl,0.878 ± 0.41,–
C[N+](C)(C)CCOP(=O)(O)OP(=O)([O-])OC[C@H]1O[C@@H](n2ccc(N)nc2=O)[C@H](O)[C@@H]1O,-0.276 ± 0.29,–
Nc1ccc(S(=O)(=O)NC(=O)c2ccccc2)cc1,-0.643 ± 0.03,–
FCOC(C(F)(F)F)C(F)(F)F,-0.822 ± 0.083,–
CCN(CC)CCCC(C)Nc1ccnc2cc(Cl)ccc12 (centres undefined),-3.58 ± 0.36,–

# Complete entries from above.
# Nc1nc(F)nc2c1ncn2[C@@H]1O[C@H](COP(=O)(O)O)[C@@H](O)[C@@H]1O is listed as mitochondrial oxygen consumption rate normalised (2 µM): -0.579 ± 0.45
# NC(=O)N[C@@H](CCC(=O)O)C(=O)O is listed as mitochondrial oxygen consumption rate normalised (2 µM): -0.164 ± 0.87
# NC(=O)c1ccccc1O is listed as mitochondrial oxygen consumption rate normalised (2 µM): -0.323 ± 0.076
# CC(=O)[C@@]12O[C@](C)(c3ccccc3)O[C@@H]1C[C@H]1[C@@H]3CCC4=CC(=O)CC[C@]4(C)[C@H]3CC[C@@]12C is listed as mitochondrial oxygen consumption rate normalised (2 µM): -0.271 ± 0.92

# (list continues)

Compound,mitochondrial oxygen consumption rate normalised (2 µM),mitochondrial oxygen consumption rate normalised (10 µM)
CS(=O)(=O)c1ccc([C@@H](O)[C@@H](CF)NC(=O)C(Cl)Cl)cc1,-0.4989 ± 0.0012,–
CC(C)NCC(O)COc1cccc2ccccc12 (racemic),0.146 ± 0.61,-0.291 ± 0.42
Cc1cccc(C)c1NC(=O)c1ccccc1C(=O)O,0.202 ± 0.32,-0.418 ± 1.1
O=C1OC(c2ccc(O)cc2)(c2ccc(O)cc2)c2ccccc21,1.339 ± 0.0034,–
O=C(O)CN(CCN(CC(=O)O)CC(=O)O)CC(=O)O.[Na+].[Na+].[Na+],-0.15 ± 0.32,–
CC(C(=O)O)c1cccc(Oc2ccccc2)c1 (centres undefined),-0.0899 ± 0.046,–
CCCc1ncc(C[n+]2ccccc2C)c(N)n1,-0.103 ± 0.23,–
CN(C)c1cnccn1,0.0545 ± 0.76,–
CCn1cc(C(=O)O)c(=O)c2cc(F)c(N3CCNCC3)nc21,0.976 ± 0.094,–
CC(=O)OCC(=O)NCCCOc1cccc(CN2CCCCC2)c1,0.298 ± 0.62,–
C=CCc1ccc(O)c(OC)c1,0.166 ± 0.073,–
OC[C@@H](O)[C@@H](O)[C@H](O)[C@H](O)CO,0.388 ± 0.68,–
CC(=O)N1CCN(c2ccc(OCC3COC(Cn4ccnc4)(c4ccc(Cl)cc4Cl)O3)cc2)CC1 (centres undefined),-1.02 ± 0.04,–
CC(C)NCC(O)c1ccc(NS(C)(=O)=O)cc1 (centres undefined),-0.642 ± 1.1,–
C#C[C@]1(O)CC[C@H]2[C@@H]3CCc4cc(OC)ccc4[C@H]3CC[C@@]21C,-0.815 ± 0.23,–
O=C(O)P(=O)(O)O,0.718 ± 0.47,–
CCCCCCCCCCCCCCCC[N+](C)(C)CCN(Cc1ccc(OC)cc1)c1ncccn1,-0.911 ± 0.17,-2.13 ± 0.31
Cc1nc(C)c(Cl)c(O)c1Cl,0.979 ± 1.2,–
CCN(CC)CCCC(C)Nc1c2ccc(Cl)cc2nc2ccc(OC)cc12 (centres undefined) [Quinacrine],0.315 ± 0.12,–
CCN(CC)CCCC(C)Nc1c2ccc(Cl)cc2nc2ccc(OC)cc12 (centres undefined),-2.83 ± 0.48,–
NS(=O)(=O)c1ccc(C(=O)O)cc1,0.558 ± 0.47,–
CCOc1ccccc1C(N)=O,-0.835 ± 0.23,–
CO[C@H]1C[C@@H]2CC[C@@H](C)[C@@](O)(O2)C(=O)C(=O)N2CCCC[C@H]2C(=O)O[C@H]([C@H](C)C[C@@H]2CC[C@@H](O)[C@H](OC)C2)CC(=O)[C@H](C)/C=C(\C)[C@@H](O)[C@@H](OC)C(=O)[C@H](C)C[C@H](C)/C=C/C=C/C=C/1C,-0.204 ± 1.2,–
CO[C@H]1C[C@@H]2CC[C@@H](C)[C@@](O)(O2)C(=O)C(=O)N2CCCC[C@H]2C(=O)O[C@H]([C@H](C)C[C@@H]2CC[C@@H](O)[C@H](OC)C2)CC(=O)[C@H](C)/C=C(\C)[C@@H](O)[C@@H](OC)C(=O)[C@H](C)C[C@H](C)/C=C/C=C/C=C/1C [Sirolimus (Rapamycin)],-0.215 ± 0.18,–
CNC[C@H](O)c1cccc(O)c1,0.418 ± 0.42,–
CCN(CC)CCNC(=O)c1ccc(NC(C)=O)cc1,0.757 ± 0.096,–

Compound,mitochondrial oxygen consumption rate normalised (2 µM),mitochondrial oxygen consumption rate normalised (10 µM)
CN1C(=O)CC(C)(c2ccccc2)C1=O (centres undefined),0.499 ± 0.27,-0.314 ± 0.74
CCOC(=O)[C@H](CCc1ccccc1)N[C@@H](C)C(=O)N1[C@H](C(=O)O)C[C@H]2CCCC[C@@H]21,-0.565 ± 0.58,–
CC(C)(CO)[C@@H](O)C(=O)NCCCO,0.215 ± 0.56,–
CNC(=C[N+](=O)[O-])NCCSCc1ccc(CN(C)C)o1,-0.766 ± 0.075,–
COC(=O)[C@H]1[C@H]2C[C@@H]3c4[nH]c5cc(OC)ccc5c4CCN3C[C@H]2C[C@@H](OC(=O)c2cc(OC)c(OC)c(OC)c2)[C@@H]1OC,-0.792 ± 0.14,–
CCCc1nc(C)c2c(O)nc(-c3cc(S(=O)(=O)N4CCN(CC)CC4)ccc3OCC)nn12,-0.0767 ± 0.89,–
N[C@H](Cc1ccccc1)C(=O)O,-0.763 ± 0.44,–
O=c1c(-c2ccc(O)cc2)coc2cc(O)cc(O)c12,-1.9 ± 0.61,–
C[C@@H]1CC(=O)NN=C1c1ccc(NN=C(C#N)C#N)cc1,-0.534 ± 0.77,–
C[C@@H](c1ncncc1F)[C@](O)(Cn1cncn1)c1ccc(F)cc1F,0.501 ± 0.59,–
O=C(Nc1cc(Cl)cc(Cl)c1O)c1c(O)c(Cl)cc(Cl)c1Cl,1.17 ± 1.3,–
O=C(O)Cc1ccccc1Nc1c(Cl)cccc1Cl,-0.355 ± 1.4,–
CS(=O)(=O)c1ccc([C@@H](O)[C@@H](CO)NC(=O)C(Cl)Cl)cc1,0.476 ± 0.59,–
CC(C)Cc1ccc([C@H](C)C(=O)O)cc1,0.0549 ± 0.3,–
C[C@]12C=CC(=O)C=C1CC[C@@H]1[C@@H]2[C@@H](O)C[C@@]2(C)[C@H]1CC[C@]2(O)C(=O)CO,-0.0694 ± 0.7,–
CCOc1cc(NC(C)=O)ccc1C(=O)OC,-0.364 ± 0.45,-0.0275 ± 0.23
O=c1[nH]cc(F)c(=O)[nH]1,0.278 ± 1.1,–
O=c1[nH]cc(F)c(=O)[nH]1 [Fluorouracil  (5-FU)],1.39 ± 0.077,–
CC(=O)Oc1c(C)cccc1C(=O)O,0.0311 ± 0.42,–
N=c1ccn2c(n1)O[C@H]1[C@H](O)[C@@H](CO)O[C@H]12,0.338 ± 0.043,–
OC[C@@H](O)[C@@H](O)CO,-0.27 ± 0.034,–
O=C1C(CC[S+]([O-])c2ccccc2)C(=O)N(c2ccccc2)N1c1ccccc1 (centres undefined),-1.16 ± 0.2,–
CC(=O)OC/C=C(C)/C=C/C=C(C)/C=C/C1=C(C)CCCC1(C)C,-0.78 ± 0.26,–

# Source: the supplement of paper PMC4962491
